Values quoted from earlier work, collected in patent US20250205248A1, “REPURPOSING VARENICLINE AS AN ANTI-INFLAMMATORY AGENT WITH ITS SUPPRESSOR EFFECTS ON INFLAMMATORY CYTOKINES” (IZMIR EKONOMI UNIVERSITESI, priority 2022, published 2025).
At least one compound was matched to its structure with a doubt left.

System: LPS-activated RAW264.7 macrophage cell cultures
Conditions: cited from earlier work

CC(=O)OCC[N+](C)(C)C [ACh, acetylcholine]
HMGB-1 level: significantly reduces
TNFα level: significantly reduces
